Reference: PMC4118601
These are yes or no findings as the source states them, for the method shown. Binding seen in cells or lysates may run through a third protein. Some binding calls cover weakened binding; strength is not graded here. Tags and fused reporters may be left off the sequences shown.

Protein sequences, listed by entry. Tags and fused reporters are not part of them. Lines headed by an entry give the natural chain unless they say otherwise; changes in a name come on top.
UniProt P04551: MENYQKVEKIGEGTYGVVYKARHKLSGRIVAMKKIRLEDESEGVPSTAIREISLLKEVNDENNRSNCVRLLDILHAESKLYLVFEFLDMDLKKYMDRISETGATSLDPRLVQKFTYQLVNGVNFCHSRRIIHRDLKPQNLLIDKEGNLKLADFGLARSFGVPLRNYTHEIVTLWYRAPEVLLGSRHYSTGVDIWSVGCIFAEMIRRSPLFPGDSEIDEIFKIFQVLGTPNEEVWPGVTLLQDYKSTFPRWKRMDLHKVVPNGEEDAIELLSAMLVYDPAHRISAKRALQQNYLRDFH

Biological target: T1, GST-tagged p13Suc1 (Suc1-beads) (UniProt P08463)
T1 sequence: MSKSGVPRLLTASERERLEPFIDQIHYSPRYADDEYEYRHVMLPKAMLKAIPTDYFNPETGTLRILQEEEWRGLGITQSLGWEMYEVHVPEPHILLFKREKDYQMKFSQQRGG
Assay: pull-down; Suc1-beads (Millipore) incubated with S. pombe protein extracts; pulldowns analysed by SDS-PAGE and Western blot with anti-Cdc2 monoclonal; in the absence of ATP-analogues; only the target purified

| Substance | binding |
| --- | --- |
| Cdc2 wild type (Cdk1 of fission yeast) (from UniProt P04551 1-297) (enzyme) | binds |
| Cdc2-asM17 (Cdc2 K79E F84G) (from UniProt P04551 1-297) (enzyme) | binds |
